Results are given as percent effect.
How 0% and 100% were set is not recorded. Most values in the screen are low, and negative values occur.
This is an unselected part of the compounds tested.
A dash means the value is not listed here; it may have been measured.

Protein sequences, listed by entry. Tags and fused reporters are not part of them. Residues count along the entry.
UniProt A4I591, 1-473: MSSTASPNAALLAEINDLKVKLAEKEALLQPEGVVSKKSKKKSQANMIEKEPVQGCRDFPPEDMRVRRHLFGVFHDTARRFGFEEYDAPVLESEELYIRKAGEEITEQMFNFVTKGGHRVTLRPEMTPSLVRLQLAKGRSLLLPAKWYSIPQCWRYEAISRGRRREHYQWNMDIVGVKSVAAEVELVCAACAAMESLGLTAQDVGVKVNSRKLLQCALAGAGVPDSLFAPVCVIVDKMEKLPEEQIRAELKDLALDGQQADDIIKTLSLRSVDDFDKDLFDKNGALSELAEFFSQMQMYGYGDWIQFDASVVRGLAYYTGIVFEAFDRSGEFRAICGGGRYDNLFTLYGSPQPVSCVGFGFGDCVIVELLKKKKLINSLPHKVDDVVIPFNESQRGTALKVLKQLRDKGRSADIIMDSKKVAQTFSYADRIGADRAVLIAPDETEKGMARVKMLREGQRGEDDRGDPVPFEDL
UniProt P9WFT3, whole entry: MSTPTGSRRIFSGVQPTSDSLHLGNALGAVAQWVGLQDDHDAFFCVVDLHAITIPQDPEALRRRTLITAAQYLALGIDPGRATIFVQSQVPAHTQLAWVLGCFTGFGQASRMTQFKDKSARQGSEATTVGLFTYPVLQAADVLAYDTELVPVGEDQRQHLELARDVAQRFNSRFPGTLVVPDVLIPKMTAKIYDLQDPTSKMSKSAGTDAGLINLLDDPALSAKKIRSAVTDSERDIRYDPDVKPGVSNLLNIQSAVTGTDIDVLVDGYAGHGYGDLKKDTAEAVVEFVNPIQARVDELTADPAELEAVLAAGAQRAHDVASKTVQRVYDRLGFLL

LiHisRS: 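Histidine-tRNA ligase, Leishmania infantum (UniProt A4I591). Enzyme assay of histidyl-tRNA synthetase; the read-out is not stated. Concentration: 30 µM. Direction is inferred from retests: higher values go with stronger inhibition. The assay is labelled LdHisRS but filed under L. infantum. About 69,000 compounds were tested under these conditions; 0.6% (about 410) showed 50% or more at least once.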
MtTrpRS: 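Tryptophan-tRNA ligase, Mycobacterium tuberculosis (UniProt P9WFT3). Enzyme assay of tryptophanyl-tRNA synthetase; the read-out is not stated. Tested at 10 µM. Higher most likely means stronger inhibition; the record gives no direction and few retests gave an IC50. Size under these conditions: about 65,000 compounds, about 64 of them at 50% or above in at least one test.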

compound: CCS(=O)(=O)N1CCN(Cc2cccnc2)c2nc(C)ccc2C1
LiHisRS: 15.6
MtTrpRS: -2.063

compound: CN1CCN(c2ccc(F)cc2NC(=O)NCc2ccon2)CC1
LiHisRS: 15.93
MtTrpRS: -2.313

compound: Cc1n[nH]c(C)c1Sc1ccccc1NC(=O)N1CCCC(C(N)=O)C1 (centres unmarked)
LiHisRS: 21.51
MtTrpRS: 3.59

compound: O=C(NCCc1nnc2n1CCC2)NCC1(c2ccccc2F)CC1
LiHisRS: 6.849
MtTrpRS: -7.464

compound: O=C(c1cccs1)N1CCOCC2(C1)CN(c1cccnc1)C(=O)CO2 (centres unmarked)
LiHisRS: 13.89
MtTrpRS: -2.216

compound: COc1cc(N2CC[C@H]3O[C@@H](C(=O)NC4CCCC4)CC[C@H]32)ncn1
LiHisRS: 9.722
MtTrpRS: 0.9752

compound: COCCN1C[C@@H]2[C@@H](OC)CCN(C(=O)Cc3ccsc3)[C@@H]2C1
LiHisRS: 17.31
MtTrpRS: -7.849

compound: CN(Cc1csc(-c2cnn(C)c2)n1)CC1CCN(CCO)CC1
LiHisRS: -3.571
MtTrpRS: 11.61

compound: CCN1CCN(S(=O)(=O)N2CCC(OC)CC2)[C@H]2CS(=O)(=O)C[C@H]21
LiHisRS: 9.167
MtTrpRS: 3.096

compound: COc1c(C)cc(CNCc2ccnc(N3CCOCC3)c2)cc1C
LiHisRS: 14.29
MtTrpRS: -3.488

compound: Cc1ccccc1N1CC2(CCCCN2CC2CC2)CC1=O (centres unmarked)
LiHisRS: 24.79
MtTrpRS: 3.738

compound: Cc1ccccc1C(CC(=O)NCc1nnc(N)s1)c1ccccc1 (centres unmarked)
LiHisRS: 10.83
MtTrpRS: 2.683

compound: Cc1noc(C)c1CNCC1Cn2nncc2CO1 (centres unmarked)
LiHisRS: 2.703

compound: CCOCCn1c(=O)[nH]c2cc(C(=O)N(C)Cc3nc(C)c[nH]3)ccc21
LiHisRS: 11.32
MtTrpRS: -1.649

compound: CC1COCCN1c1ncnc2sccc12 (centres unmarked)
LiHisRS: 15.18
MtTrpRS: 0.2172

compound: CC(C)(C)NC(=O)N1CCCn2nc(C(=O)Nc3ccccc3)cc2C1
LiHisRS: 7.692
MtTrpRS: -5.851

compound: Cn1cc(CN2CC[C@H]3OCC[C@@H](C(=O)NC4CCCC4)[C@@H]3C2)cn1
LiHisRS: 10.26
MtTrpRS: 6.501

compound: Cc1cnn(CC(C)NCc2ccc(OCc3noc(C)n3)cc2)c1 (centres unmarked)
LiHisRS: 7.826
MtTrpRS: -1.022

compound: CSCc1noc(CNC(=O)C2CCN(C(=O)C3CCC3)CC2)n1
LiHisRS: 16.33
MtTrpRS: 5.924

compound: COCCN1CCC2(CC1)CC(NC(=O)CC1CC1)c1ccccc1O2 (centres unmarked)
LiHisRS: 11.54
MtTrpRS: -7.849

compound: Cc1cc(NC(=O)CN2CCc3cncnc3C2)no1
LiHisRS: 12.5
MtTrpRS: 69.05

compound: COc1ccc(-c2n[nH]cc2CNC2CCN(C3CC3)CC2)cc1
LiHisRS: 16.07
MtTrpRS: -1.508

compound: COc1ccccc1CN(C)C(=O)CN1CC(n2nc(C)cc2C)C1
LiHisRS: 40.18
MtTrpRS: 0.7965

compound: CCS(=O)(=O)N1CCC(c2nccn2Cc2ccccn2)CC1
LiHisRS: 0
MtTrpRS: -2.224

compound: Cc1nc(CNC(=O)N(CCCO)C2CCc3ccccc32)oc1C (centres unmarked)
LiHisRS: 10.71
MtTrpRS: -2.985

compound: OCCN1CCC(CNCc2ccccc2OC(F)(F)F)CC1
LiHisRS: 14.68
MtTrpRS: -4.16

compound: Cc1cc(-c2nn(C)c(Cl)c2CN2CCOCC2CC(N)=O)no1 (centres unmarked)
LiHisRS: 13.89
MtTrpRS: 3.645

compound: O=C(NC1CCC1)C1=NOC2(CCN(Cc3ccccc3)C2)C1 (centres unmarked)
LiHisRS: 7.273
MtTrpRS: 1.569

compound: CN1CCOC(CNCCc2ccccn2)C1 (centres unmarked)
LiHisRS: -23.6
MtTrpRS: 5.271

compound: Cc1nc(CCC(=O)NCC(N)=O)cc(C2CCNCC2)n1
LiHisRS: 8.247

compound: COc1ccc([C@@H]2NC(=O)N[C@H]3OCCC[C@H]32)cc1
LiHisRS: 11.9
MtTrpRS: 0.288

compound: COCCCNC(=O)Cc1cc(-c2ccc3c(c2)OCO3)on1
LiHisRS: -4.274
MtTrpRS: 14.24

Some entries from above, unchanged:

| compound | LiHisRS | MtTrpRS |
|---|---|---|
| `Cc1nc(CCC(=O)NCC(N)=O)cc(C2CCNCC2)n1` | 8.247 | - |
| `COCCCNC(=O)Cc1cc(-c2ccc3c(c2)OCO3)on1` | -4.274 | 14.24 |
| `COCCN1C[C@@H]2[C@@H](OC)CCN(C(=O)Cc3ccsc3)[C@@H]2C1` | 17.31 | -7.849 |
| `COCCN1CCC2(CC1)CC(NC(=O)CC1CC1)c1ccccc1O2` (centres unmarked) | 11.54 | -7.849 |

From ChEMBL document CHEMBL3988442, “University of Dundee, Small-Polar-MMV Screening Library” (2021).